{
  "sequences": {"note": "Sequences of proteins named here, by UniProt entry; tags and fusion partners are left off.", "UniProt P63158": "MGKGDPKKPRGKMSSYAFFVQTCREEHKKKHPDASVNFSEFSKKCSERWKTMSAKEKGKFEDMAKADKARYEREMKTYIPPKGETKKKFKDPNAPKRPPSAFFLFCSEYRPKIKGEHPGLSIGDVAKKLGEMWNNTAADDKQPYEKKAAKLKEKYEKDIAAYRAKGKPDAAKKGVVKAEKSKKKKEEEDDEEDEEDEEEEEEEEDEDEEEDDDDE"},
  "source": "paper PMC7957162",
  "molecules": {"B1": {"name": "P50, P25799 1-431 (protein)", "chain": "MADDDPYGTGQMFHLNTALTHSIFNAELYSPEIPLSTDGPYLQILEQPKQRGFRFRYVCEGPSHGGLPGASSEKNKKSYPQVKICNYVGPAKVIVQLVTNGKNIHLHAHSLVGKHCEDGVCTVTAGPKDMVVGFANLGILHVTKKKVFETLEARMTEACIRGYNPGLLVHSDLAYLQAEGGGDRQLTDREKEIIRQAAVQQTKEMDLSVVRLMFTAFLPDSTGSFTRRLEPVVSDAIYDSKAPNASNLKIVRMDRTAGCVTGGEEIYLLCDKVQKDDIQIRFYEEEENGGVWEGFGDFSPTDVHRQFAIVFKTPKYKDVNITKPASVFVQLRRKSDLETSEPKPFLYYPEIKDKEEVQRKRQKLMPNFSDSFGGGSGAGAGGGGMFGSGGGGGSTGSPGPGYGYSNYGFPPYGGITFHPGVTKSNAGVTHG"}},
  "assay_in_all_cases": "two-hybrid; mammalian two-hybrid in 293T cells (P-act / P-bind vectors, Lipofectamine 3000); firefly luciferase with Renilla as internal reference; cells untreated, with TNF-α, or with TNF-α and paeonol (PL, PM, PH)",
  "key": {"P50": {"target": "P50 (UniProt P25799)"}, "NF-κB P65": {"target": "NF-κB P65 (UniProt Q04207)"}, "NF-κB P65, Q04207": {"target": "T1, NF-κB P65, Q04207", "T1 chain": "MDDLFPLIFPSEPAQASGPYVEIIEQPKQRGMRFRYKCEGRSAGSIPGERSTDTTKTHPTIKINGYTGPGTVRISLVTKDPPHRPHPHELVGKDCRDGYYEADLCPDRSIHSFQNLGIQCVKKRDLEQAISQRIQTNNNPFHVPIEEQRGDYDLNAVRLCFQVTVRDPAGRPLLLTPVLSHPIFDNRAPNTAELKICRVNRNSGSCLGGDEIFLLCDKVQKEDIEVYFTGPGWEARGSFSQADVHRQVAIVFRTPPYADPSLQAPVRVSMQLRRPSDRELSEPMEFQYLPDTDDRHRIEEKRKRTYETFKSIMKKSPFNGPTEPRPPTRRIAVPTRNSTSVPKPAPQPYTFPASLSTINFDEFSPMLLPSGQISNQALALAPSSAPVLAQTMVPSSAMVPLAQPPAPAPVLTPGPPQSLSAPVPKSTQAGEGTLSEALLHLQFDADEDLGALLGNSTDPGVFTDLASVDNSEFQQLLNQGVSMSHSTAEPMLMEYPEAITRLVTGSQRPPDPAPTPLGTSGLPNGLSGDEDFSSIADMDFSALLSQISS", "conditions": "remark: other sources report otherwise"}},
  "note": "Results are given in words; binding and its absence hold for the method and conditions named. Some binding calls cover weakened binding; strength is not graded here.",
  "data": [
    {"molecule": "High-mobility group box 1 (HMGB1) (from UniProt P63158 1-215)", "values": [
      {"measurement": "binding", "setting": "P50", "value": "binds"},
      {"measurement": "binding", "setting": "NF-κB P65", "value": "binds"}
    ]},
    {"molecule": "B1", "values": [
      {"measurement": "binding", "setting": "NF-κB P65, Q04207", "value": "binds"}
    ]}
  ]
}
